The supplement of paper PMC10849652
Some of the results follow. Residues, ends and D or L forms follow the SMILES beside them. *: point of attachment. Cbz = O=C(OCc1ccccc1)*

Amino acid sequences for entries named in this document (tags omitted). A change or cut given only in a name is not applied to a line headed by its entry.
UniProt P62491: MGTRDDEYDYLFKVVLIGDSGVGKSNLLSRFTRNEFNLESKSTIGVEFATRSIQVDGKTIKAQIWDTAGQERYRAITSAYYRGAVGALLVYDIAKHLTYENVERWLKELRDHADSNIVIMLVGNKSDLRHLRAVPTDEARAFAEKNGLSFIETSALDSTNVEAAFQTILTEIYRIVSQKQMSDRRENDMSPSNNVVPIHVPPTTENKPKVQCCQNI
UniProt Q15042: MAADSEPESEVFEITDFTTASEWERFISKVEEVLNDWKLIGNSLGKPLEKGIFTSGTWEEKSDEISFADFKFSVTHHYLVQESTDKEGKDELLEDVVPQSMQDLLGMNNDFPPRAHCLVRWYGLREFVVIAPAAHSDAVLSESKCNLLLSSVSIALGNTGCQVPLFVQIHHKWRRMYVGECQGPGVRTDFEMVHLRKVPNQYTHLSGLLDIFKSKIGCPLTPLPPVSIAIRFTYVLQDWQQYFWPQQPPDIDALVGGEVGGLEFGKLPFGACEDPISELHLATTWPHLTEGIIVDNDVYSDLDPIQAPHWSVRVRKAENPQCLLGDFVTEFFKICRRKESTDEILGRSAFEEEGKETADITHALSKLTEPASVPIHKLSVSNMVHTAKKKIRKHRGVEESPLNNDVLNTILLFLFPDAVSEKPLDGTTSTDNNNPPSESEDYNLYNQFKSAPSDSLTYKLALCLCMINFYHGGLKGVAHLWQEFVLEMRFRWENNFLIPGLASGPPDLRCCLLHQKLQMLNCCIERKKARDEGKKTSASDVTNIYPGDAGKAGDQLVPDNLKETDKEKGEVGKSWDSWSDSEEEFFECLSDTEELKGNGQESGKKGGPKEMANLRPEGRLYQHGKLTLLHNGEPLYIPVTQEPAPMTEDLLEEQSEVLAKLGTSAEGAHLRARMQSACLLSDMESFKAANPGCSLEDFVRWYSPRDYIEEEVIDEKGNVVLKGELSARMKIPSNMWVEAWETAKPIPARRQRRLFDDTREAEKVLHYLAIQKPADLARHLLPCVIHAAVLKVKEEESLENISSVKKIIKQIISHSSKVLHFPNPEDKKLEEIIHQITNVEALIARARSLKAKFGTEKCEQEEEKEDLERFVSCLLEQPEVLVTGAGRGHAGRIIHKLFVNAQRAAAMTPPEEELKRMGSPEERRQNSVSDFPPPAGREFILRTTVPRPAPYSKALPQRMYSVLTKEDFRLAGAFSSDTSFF
UniProt P61106, whole entry, looked up: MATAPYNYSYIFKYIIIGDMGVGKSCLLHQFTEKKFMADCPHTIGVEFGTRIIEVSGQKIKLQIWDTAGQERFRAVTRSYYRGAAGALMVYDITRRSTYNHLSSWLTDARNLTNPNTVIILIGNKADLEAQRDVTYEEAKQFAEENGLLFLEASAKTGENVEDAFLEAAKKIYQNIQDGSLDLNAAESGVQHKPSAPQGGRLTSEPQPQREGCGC
UniProt Q9UL26: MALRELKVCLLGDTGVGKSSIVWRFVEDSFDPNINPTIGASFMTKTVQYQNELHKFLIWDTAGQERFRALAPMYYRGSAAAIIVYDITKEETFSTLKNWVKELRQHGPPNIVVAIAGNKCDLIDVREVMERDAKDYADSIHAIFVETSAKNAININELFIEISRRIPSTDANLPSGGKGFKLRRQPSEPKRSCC
UniProt Q9NRW1: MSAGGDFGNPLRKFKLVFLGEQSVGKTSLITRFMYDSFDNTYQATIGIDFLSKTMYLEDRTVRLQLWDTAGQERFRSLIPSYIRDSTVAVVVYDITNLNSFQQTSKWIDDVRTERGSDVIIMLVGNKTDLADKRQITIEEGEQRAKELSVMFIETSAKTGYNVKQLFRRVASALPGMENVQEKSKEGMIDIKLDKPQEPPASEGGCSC
UniProt Q86YS6: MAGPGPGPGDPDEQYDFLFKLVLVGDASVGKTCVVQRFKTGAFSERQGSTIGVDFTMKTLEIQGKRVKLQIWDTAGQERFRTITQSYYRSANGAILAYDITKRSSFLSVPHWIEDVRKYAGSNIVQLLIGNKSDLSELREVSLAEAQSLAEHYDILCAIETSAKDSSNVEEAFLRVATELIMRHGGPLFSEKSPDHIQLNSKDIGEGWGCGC
UniProt P51153: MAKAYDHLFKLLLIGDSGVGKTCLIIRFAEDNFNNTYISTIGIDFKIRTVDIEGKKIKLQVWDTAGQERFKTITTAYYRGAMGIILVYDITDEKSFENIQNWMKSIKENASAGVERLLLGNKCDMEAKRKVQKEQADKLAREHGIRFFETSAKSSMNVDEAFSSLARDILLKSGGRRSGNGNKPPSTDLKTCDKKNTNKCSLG
UniProt Q9Y3P9: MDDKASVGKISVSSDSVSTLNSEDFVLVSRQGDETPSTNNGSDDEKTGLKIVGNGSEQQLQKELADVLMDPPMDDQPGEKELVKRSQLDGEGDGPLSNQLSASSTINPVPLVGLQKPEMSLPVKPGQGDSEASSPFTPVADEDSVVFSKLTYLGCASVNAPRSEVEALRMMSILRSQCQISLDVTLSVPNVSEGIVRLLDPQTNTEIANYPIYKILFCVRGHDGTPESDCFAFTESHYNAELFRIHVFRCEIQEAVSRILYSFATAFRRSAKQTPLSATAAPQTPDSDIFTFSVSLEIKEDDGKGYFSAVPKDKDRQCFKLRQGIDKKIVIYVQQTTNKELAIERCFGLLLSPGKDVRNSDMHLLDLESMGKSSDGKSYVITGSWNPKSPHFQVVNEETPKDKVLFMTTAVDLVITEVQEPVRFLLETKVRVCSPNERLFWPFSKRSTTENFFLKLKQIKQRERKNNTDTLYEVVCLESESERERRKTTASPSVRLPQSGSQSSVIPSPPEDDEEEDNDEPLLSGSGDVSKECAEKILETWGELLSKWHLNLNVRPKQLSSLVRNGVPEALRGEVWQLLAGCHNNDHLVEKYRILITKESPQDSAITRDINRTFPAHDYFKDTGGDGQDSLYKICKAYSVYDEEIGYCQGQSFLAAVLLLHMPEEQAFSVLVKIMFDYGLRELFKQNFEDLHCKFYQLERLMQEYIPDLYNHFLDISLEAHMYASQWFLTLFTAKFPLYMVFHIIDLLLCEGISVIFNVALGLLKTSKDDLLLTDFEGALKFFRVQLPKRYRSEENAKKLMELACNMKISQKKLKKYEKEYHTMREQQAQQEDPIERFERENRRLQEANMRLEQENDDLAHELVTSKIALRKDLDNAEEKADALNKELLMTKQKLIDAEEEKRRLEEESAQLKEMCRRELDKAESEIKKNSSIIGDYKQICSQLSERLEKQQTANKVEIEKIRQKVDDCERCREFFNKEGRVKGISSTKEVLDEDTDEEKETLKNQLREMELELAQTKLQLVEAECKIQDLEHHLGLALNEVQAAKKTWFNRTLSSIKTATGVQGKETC
UniProt P54725: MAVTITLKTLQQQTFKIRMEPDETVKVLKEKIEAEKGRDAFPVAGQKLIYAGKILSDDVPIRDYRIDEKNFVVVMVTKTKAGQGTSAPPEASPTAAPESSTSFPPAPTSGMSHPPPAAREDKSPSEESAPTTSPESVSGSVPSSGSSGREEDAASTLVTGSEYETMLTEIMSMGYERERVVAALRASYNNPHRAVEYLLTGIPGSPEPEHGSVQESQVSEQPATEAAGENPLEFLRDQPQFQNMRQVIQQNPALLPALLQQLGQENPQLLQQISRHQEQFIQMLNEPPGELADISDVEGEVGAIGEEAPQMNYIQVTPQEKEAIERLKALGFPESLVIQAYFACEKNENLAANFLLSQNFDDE
UniProt P61006: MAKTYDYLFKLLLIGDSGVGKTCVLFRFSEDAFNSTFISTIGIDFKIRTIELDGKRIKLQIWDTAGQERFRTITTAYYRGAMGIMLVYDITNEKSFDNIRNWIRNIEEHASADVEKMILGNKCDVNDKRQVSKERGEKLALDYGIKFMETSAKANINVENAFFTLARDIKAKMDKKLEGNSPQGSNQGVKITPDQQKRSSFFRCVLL
UniProt Q15907: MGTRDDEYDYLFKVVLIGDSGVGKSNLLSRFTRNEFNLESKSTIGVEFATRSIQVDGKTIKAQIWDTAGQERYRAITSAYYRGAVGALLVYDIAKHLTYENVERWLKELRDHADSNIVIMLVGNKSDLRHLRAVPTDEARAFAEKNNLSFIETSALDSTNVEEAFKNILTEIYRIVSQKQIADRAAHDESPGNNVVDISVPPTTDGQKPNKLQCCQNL
UniProt Q96B01: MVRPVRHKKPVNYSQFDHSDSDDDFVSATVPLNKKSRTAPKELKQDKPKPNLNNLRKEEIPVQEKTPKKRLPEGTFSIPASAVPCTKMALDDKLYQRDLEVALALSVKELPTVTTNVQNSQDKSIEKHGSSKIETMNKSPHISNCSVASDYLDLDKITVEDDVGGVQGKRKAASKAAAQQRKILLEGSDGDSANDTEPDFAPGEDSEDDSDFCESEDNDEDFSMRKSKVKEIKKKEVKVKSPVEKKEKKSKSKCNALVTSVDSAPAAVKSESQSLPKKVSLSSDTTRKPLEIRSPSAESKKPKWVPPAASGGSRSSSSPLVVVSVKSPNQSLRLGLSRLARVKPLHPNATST
UniProt P61019: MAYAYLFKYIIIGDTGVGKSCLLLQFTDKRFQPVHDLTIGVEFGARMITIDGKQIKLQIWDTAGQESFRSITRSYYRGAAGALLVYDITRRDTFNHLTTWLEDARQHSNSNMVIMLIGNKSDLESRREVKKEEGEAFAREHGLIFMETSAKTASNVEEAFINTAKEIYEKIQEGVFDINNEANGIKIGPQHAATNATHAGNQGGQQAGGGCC
UniProt P51159: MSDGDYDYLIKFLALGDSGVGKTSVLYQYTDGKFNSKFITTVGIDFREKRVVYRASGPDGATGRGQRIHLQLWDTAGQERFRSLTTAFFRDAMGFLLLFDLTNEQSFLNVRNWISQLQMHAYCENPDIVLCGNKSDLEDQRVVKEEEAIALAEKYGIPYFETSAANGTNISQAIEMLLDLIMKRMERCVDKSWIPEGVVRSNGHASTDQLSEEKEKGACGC
UniProt Q9ULC3: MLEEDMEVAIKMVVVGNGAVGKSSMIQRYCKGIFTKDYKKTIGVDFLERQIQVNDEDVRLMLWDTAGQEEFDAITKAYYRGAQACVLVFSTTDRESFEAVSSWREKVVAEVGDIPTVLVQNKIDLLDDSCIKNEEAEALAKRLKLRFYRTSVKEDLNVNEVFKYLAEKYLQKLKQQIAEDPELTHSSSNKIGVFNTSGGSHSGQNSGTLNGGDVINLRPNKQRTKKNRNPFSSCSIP
UniProt Q7Z6M1: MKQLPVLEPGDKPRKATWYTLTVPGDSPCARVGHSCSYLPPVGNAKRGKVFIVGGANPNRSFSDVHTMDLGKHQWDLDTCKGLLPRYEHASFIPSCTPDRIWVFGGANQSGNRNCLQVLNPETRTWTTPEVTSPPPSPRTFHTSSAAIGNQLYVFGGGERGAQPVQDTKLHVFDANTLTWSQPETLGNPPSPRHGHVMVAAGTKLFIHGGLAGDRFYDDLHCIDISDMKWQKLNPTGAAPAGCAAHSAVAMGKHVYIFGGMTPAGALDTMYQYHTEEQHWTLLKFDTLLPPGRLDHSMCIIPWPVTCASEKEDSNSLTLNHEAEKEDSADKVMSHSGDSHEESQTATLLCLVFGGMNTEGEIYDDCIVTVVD

Columns and labels:
Experiment in all cases: log2 fold change, soluble protein after heating vs DMSO (PISA); higher = thermal stabilisation; K562 cells, 10 uM, 30 min; active = over 0.2 and 3.5 SD of the protein, either way, in both replicates (recomputed)
erlotinib = compound: C#Cc1cccc(Nc2ncnc3cc(OCCOC)c(OCCOC)cc23)c1 [erlotinib]
How it was run: (§1)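 Quantification of soluble protein used TMTpro 16plex LC-MS/MS, with channel sums equalised. Samples were the supernatant after 21,000xg for 90 min of pooled aliquots from K562 cells (2×10^6 cells/mL) treated with 10 μM compound for 30 min, heated for 3 min over 48°C-58°C, and extracted in PBS with 0.5% NP-40 at 4°C. Values, from duplicates, describe thermal stability against control samples on a log2 fold-change scale.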

[1] = compound: C/C(=N\NC(=O)C1=CC(=CC=C1)S(=O)(=O)N2CCOCC2)/C3=C(C=CC(=C3)Cl)O
How it was run: as §1

[2] = compound: C1=CC(=C(C=C1Cl)C2=NC3=NC=CN=C3C(=N2)NC4=CC=NC=C4)F
How it was run: as §1

[3] = compound: C1=CC(=CC=C1C2=NC3=C(N2)C=C(C=C3)C(=O)N)OC4=CC=C(C=C4)Cl
How it was run: as §1

[4] = compound: C1=CC2=C(C=CC(=C2)/C=C\3/C(=O)NC(=NCC4=CC=CS4)S3)N=C1
How it was run: as §1

[5] = compound: C1=CC2=NC=CN=C2C=C1/C=C/3\C(=O)NC(=O)S3
How it was run: as §1

[6] = compound: C1=CC=C(C=C1)C2=NC(=C(N2)C3=CC=NC=C3)C4=CC(=C(C=C4)Cl)O
How it was run: as §1

[7] = compound: C1=CC=C2C(=C1)C3=NNC4=CC=CC(=C43)C2=O
How it was run: as §1

[8] = compound: C1CCN(C1)C(=O)NC2=CC=CC(=C2)NC3=NC=C(C(=N3)NCCC4=CN=CN4)Br
How it was run: as §1

[9] = compound: C1CN(CCC1(CC2=CC=C(C=C2)Cl)N)C3=NC=NC4=C3C=CN4
How it was run: as §1

IRAK-1-4 Inhibitor I = compound: C1COCCN1CCN2C3=CC=CC=C3N=C2NC(=O)C4=CC(=CC=C4)[N+](=O)[O-] [IRAK-1-4 Inhibitor I]
How it was run: as §1

ibrutinib = compound: C=CC(=O)N1CCC[C@@H](n2nc(-c3ccc(Oc4ccccc4)cc3)c3c(N)ncnc32)C1 [ibrutinib]
How it was run: as §1

[10] = compound: CC(=O)c1cnc2ccc(-c3cc(Cl)c(O)c(Cl)c3)nc2c1N[C@H]1CC[C@H](CN(C)C)CC1
How it was run: as §1

ralimetinib = compound: CC(C)(C)Cn1c(N)nc2ccc(-c3[nH]c(C(C)(C)C)nc3-c3ccc(F)cc3)nc21 [ralimetinib]
How it was run: as §1

[11] = compound: CC(C)(O)CC(=O)NCCn1ccc2ncnc(Nc3ccc(Oc4cccc(C(F)(F)F)c4)c(Cl)c3)c21
How it was run: as §1

[12] = compound: CC(C)C1=C2N=C(C=C(N2N=C1)NCC3=CC=CC=C3)NCCCCCCN
How it was run: as §1

[13] = compound: CC(C)C[C@@H](C=O)NC(=O)[C@H](CC(C)C)NC(=O)[C@H](CC(C)C)NC(=O)OCc1ccccc1
How it was run: as §1

pinometostat = compound: CC(C)N(C[C@H]1O[C@@H](n2cnc3c(N)ncnc32)[C@H](O)[C@@H]1O)[C@H]1C[C@@H](CCc2nc3cc(C(C)(C)C)ccc3[nH]2)C1 [pinometostat]
How it was run: as §1

[14] = compound: CC1=C(C(CC(=O)N1)C2=CC=C(C=C2)C(F)(F)F)C(=O)NC3=C(C=C4C(=C3)C=NN4)F
How it was run: as §1

[15] = compound: CC1=C(C2=C(C=C1)C(=O)C3=CC=CC=C3N2CCCN)C
How it was run: as §1

Measured: log2 fold change

RAB11A (UniProt P62491)
inactive: erlotinib 0.048 | [1] -0.035 | [2] 0.22 | [3] 0.002 | [4] 0.037 | [5] 0.04 | [6] -0.013 | [7] 0.027 | [8] 0.028 | [9] 0.115 | IRAK-1-4 Inhibitor I 0.03 | ibrutinib 0.045 | [10] -0.025 | ralimetinib -0.019 | [11] -0.114 | [12] 0.065 | [13] 0.07 | pinometostat -0.041 | [14] -0.025 | [15] -0.024

RAB3GAP1 (UniProt Q15042)
inactive: erlotinib 0.099 | [1] 0.073 | [2] -0.076 | [3] -0.055 | [4] 0.035 | [5] 0 | [6] -0.01 | [7] -0.023 | [8] -0.064 | [9] -0.08 | IRAK-1-4 Inhibitor I -0.111 | ibrutinib -0.007 | [10] -0.034 | ralimetinib 0.119 | [11] -0.074 | [12] -0.198 | [13] 0.17 | pinometostat 0.218 | [14] 0.038 | [15] -0.016

RAB14 (UniProt P61106)
inactive: erlotinib -0.018 | [1] 0.013 | [2] 0.025 | [3] 0.012 | [4] 0.026 | [5] 0.007 | [6] 0.053 | [7] -0.009 | [8] -0.023 | [9] 0.041 | IRAK-1-4 Inhibitor I 0.009 | ibrutinib 0.011 | [10] -0.007 | ralimetinib 0.046 | [11] 0.006 | [12] 0.057 | [13] -0.045 | pinometostat -0.058 | [14] -0.024 | [15] 0.023

RAB22A (UniProt Q9UL26)
inactive: erlotinib 0.007 | [1] -0.062 | [2] 0.023 | [3] -0.02 | [4] 0.038 | [5] 0.046 | [6] -0.018 | [7] -0.001 | [8] -0.072 | [9] 0.042 | IRAK-1-4 Inhibitor I 0.042 | ibrutinib 0.021 | [10] -0.022 | ralimetinib -0.054 | [11] -0.004 | [12] 0.085 | [13] 0.007 | pinometostat -0.004 | [14] -0.002 | [15] 0.034

RAB6B (UniProt Q9NRW1)
inactive: erlotinib 0.007 | [1] 0.064 | [2] 0.046 | [3] -0.008 | [4] -0.079 | [5] 0.001 | [6] 0.032 | [7] 0.04 | [8] -0.015 | [9] 0.016 | IRAK-1-4 Inhibitor I 0.043 | ibrutinib 0.02 | [10] 0.057 | ralimetinib 0.058 | [11] 0.05 | [12] 0.118 | [13] -0.058 | pinometostat -0.068 | [14] -0.037 | [15] 0.015

RAB43 (UniProt Q86YS6)
inactive: erlotinib 0.065 | [1] 0.047 | [2] 0.032 | [3] -0.01 | [4] 0.071 | [5] 0.016 | [6] -0.049 | [7] -0.007 | [8] 0.011 | [9] 0.093 | IRAK-1-4 Inhibitor I 0.099 | ibrutinib 0.026 | [10] -0.008 | ralimetinib 0.084 | [11] -0.029 | [12] 0.05 | [13] 0.193 | pinometostat 0.01 | [14] 0.063 | [15] -0.107

RAB13 (UniProt P51153)
inactive: erlotinib -0.042 | [1] 0.156 | [2] 0.133 | [3] -0.01 | [4] -0.085 | [5] 0.024 | [6] 0.031 | [7] 0.017 | [8] -0.057 | [9] -0.03 | IRAK-1-4 Inhibitor I 0.013 | ibrutinib 0.003 | [10] 0.023 | ralimetinib -0.055 | [11] -0.007 | [12] 0.015 | [13] -0.088 | pinometostat -0.037 | [14] -0.019 | [15] -0.018

RABGAP1 (UniProt Q9Y3P9)
inactive: erlotinib 0.024 | [1] 0.032 | [2] 0.003 | [3] 0.022 | [4] 0.019 | [5] 0.071 | [6] -0.016 | [7] -0.004 | [8] -0.023 | [9] -0.037 | IRAK-1-4 Inhibitor I -0.008 | ibrutinib 0.002 | [10] -0.036 | ralimetinib 0.023 | [11] 0.017 | [12] -0.038 | [13] 0.035 | pinometostat 0.008 | [14] 0.024 | [15] 0.004

RAD23A (UniProt P54725)
inactive: erlotinib 0.023 | [1] -0.05 | [2] -0.034 | [3] 0.004 | [4] -0.011 | [5] 0.029 | [6] -0.055 | [7] 0.043 | [8] 0.028 | [9] 0.02 | IRAK-1-4 Inhibitor I 0.04 | ibrutinib -0.01 | [10] -0.018 | ralimetinib -0.043 | [11] -0.016 | [12] 0.055 | [13] 0.022 | pinometostat -0.036 | [14] 0.012 | [15] -0.031

RAB8A isoform 2 (UniProt P61006)
inactive: erlotinib -0.058 | [1] 0.133 | [2] 0.025 | [3] 0.047 | [4] -0.067 | [5] 0.055 | [6] -0.06 | [7] -0.019 | [8] 0.01 | [9] 0.039 | IRAK-1-4 Inhibitor I 0.014 | ibrutinib -0.015 | [10] 0.024 | ralimetinib -0.042 | [11] 0.009 | [12] 0.041 | [13] -0.02 | pinometostat -0.021 | [14] -0.01 | [15] 0.005

RAB11B (UniProt Q15907)
inactive: erlotinib 0.014 | [1] -0.077 | [2] 0.018 | [3] -0.011 | [4] -0.032 | [5] 0.032 | [6] -0.058 | [7] -0.038 | [8] 0.08 | [9] 0.081 | IRAK-1-4 Inhibitor I 0.075 | ibrutinib -0.006 | [10] 0.026 | ralimetinib -0.092 | [11] 0.058 | [12] 0.065 | [13] -0.006 | pinometostat -0.017 | [14] -0.003 | [15] -0.068

RAD51AP1 (UniProt Q96B01)
inactive: erlotinib 0 | [1] -0.091 | [2] 0.016 | [3] 0.061 | [4] 0.058 | [5] 0.049 | [6] -0.066 | [7] -0.015 | [8] -0.047 | [9] -0.065 | IRAK-1-4 Inhibitor I 0.02 | ibrutinib 0.002 | [10] 0.034 | ralimetinib -0.079 | [11] -0.045 | [12] 0.03 | [13] 0.136 | pinometostat 0.012 | [14] 0.017 | [15] -0.167

RAB2A (UniProt P61019)
inactive: erlotinib -0.024 | [1] -0.004 | [2] 0.041 | [3] -0.005 | [4] 0.017 | [5] 0.074 | [6] 0.014 | [7] 0.02 | [8] 0.012 | [9] 0.019 | IRAK-1-4 Inhibitor I 0.005 | ibrutinib -0.024 | [10] -0.052 | ralimetinib -0.068 | [11] 0.004 | [12] 0 | [13] -0.007 | pinometostat -0.026 | [14] -0.012 | [15] 0.009

2 records picked at random from those above, as already listed:
RAB2A (UniProt P61019)
inactive: erlotinib -0.024 | [1] -0.004 | [2] 0.041 | [3] -0.005 | [4] 0.017 | [5] 0.074 | [6] 0.014 | [7] 0.02 | [8] 0.012 | [9] 0.019 | IRAK-1-4 Inhibitor I 0.005 | ibrutinib -0.024 | [10] -0.052 | ralimetinib -0.068 | [11] 0.004 | [12] 0 | [13] -0.007 | pinometostat -0.026 | [14] -0.012 | [15] 0.009

RAD23A (UniProt P54725)
inactive: erlotinib 0.023 | [1] -0.05 | [2] -0.034 | [3] 0.004 | [4] -0.011 | [5] 0.029 | [6] -0.055 | [7] 0.043 | [8] 0.028 | [9] 0.02 | IRAK-1-4 Inhibitor I 0.04 | ibrutinib -0.01 | [10] -0.018 | ralimetinib -0.043 | [11] -0.016 | [12] 0.055 | [13] 0.022 | pinometostat -0.036 | [14] 0.012 | [15] -0.031

Further results

RAB27A (UniProt P51159)
inactive: erlotinib -0.001 | [1] 0.056 | [2] 0.031 | [3] -0.039 | [4] 0.028 | [5] 0.016 | [6] -0.003 | [7] 0.003 | [8] 0.022 | [9] 0.015 | IRAK-1-4 Inhibitor I 0.019 | ibrutinib -0.013 | [10] -0.021 | ralimetinib -0.068 | [11] 0.022 | [12] -0.019 | [13] -0.064 | pinometostat -0.033 | [14] -0.005 | [15] 0.053

RAB23 (UniProt Q9ULC3)
inactive: erlotinib 0.066 | [1] -0.036 | [2] 0.074 | [3] -0.012 | [4] -0.058 | [5] 0.061 | [6] 0.021 | [7] -0.004 | [8] 0.078 | [9] 0.053 | IRAK-1-4 Inhibitor I 0.016 | ibrutinib -0.014 | [10] 0.006 | ralimetinib -0.065 | [11] 0.004 | [12] 0.08 | [13] -0.026 | pinometostat -0.022 | [14] -0.022 | [15] 0.004

RABEPK (UniProt Q7Z6M1)
inactive: erlotinib 0.046 | [1] 0.083 | [2] 0.054 | [3] 0.018 | [4] 0.003 | [5] -0.001 | [6] -0.013 | [7] 0.003 | [8] -0.022 | [9] 0.073 | IRAK-1-4 Inhibitor I 0.069 | ibrutinib 0.038 | [10] 0.068 | ralimetinib -0.032 | [11] -0.016 | [12] 0.041 | [13] 0.011 | pinometostat 0.003 | [14] 0.024 | [15] 0.025
